This is one part of the list.
Molecular target: OsWRKY34 (Oryza sativa, UniProt Q0JBA9 1-250)
Assay: protein-binding microarray (RPBM); PBS, 2% BSA, 51.3 ng/ul salmon testes DNA, 50 uM zinc acetate, 200 nM TF, 25 C, 1 h; high values mean tight binding
Settings: protein: recombinant; tags: N-terminal polyhistidine and DsRed monomer fusion (pET32a); label: CyDye5-dUTP incorporated in the synthesized complementary strand; 3' TTTTT single-stranded linker to array surface; dsDNA, one strand shown
How it was run: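 Transcription factors were each fused at the N-terminus to a polyhistidine tag plus DsRed and expressed in E. coli BL21-CodonPlus before Ni–NTA purification. Binding to a double-stranded custom Agilent array was carried out with 200 nM protein at 25 °C for 1 h in PBS, 2% BSA, salmon testes DNA and 50 µM zinc acetate. The binding signal is per-feature fluorescence intensity, in arbitrary units, on an Axon 4000B scanner.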

The chains behind the UniProt entries cited, without tags or fusion partners.
UniProt Q0JBA9, entry or part of it: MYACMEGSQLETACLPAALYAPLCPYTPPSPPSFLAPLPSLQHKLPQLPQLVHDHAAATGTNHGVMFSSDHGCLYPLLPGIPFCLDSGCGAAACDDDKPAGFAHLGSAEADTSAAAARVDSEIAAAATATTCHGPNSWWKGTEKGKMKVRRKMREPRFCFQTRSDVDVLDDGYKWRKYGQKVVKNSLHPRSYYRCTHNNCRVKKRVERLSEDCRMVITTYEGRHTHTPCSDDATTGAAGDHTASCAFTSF

Row | Sequence | binding signal
1 | CGAATAGAAAAGCAACCGCAATCAAACCAAAATTCGCCCACGGAGTCACCTAGTGCAG | 10800 fluorescence intensity (a.u.)
2 | GCGTGTCTCTTATGGAGTTTTGATTTGTGTGCTGGTGACTCGGAGTCACCTAGTGCAG | 12500 fluorescence intensity (a.u.)
3 | CAACGTACTACGAGCTTTTCGTTCCATGTAACCGTCATCGCGGAGTCACCTAGTGCAG | 9100 fluorescence intensity (a.u.)
4 | GGGTTTTGCTTTTGCTGTTGTCTTGGGCTTGGGCCTTTGCCGGAGTCACCTAGTGCAG | 8660 fluorescence intensity (a.u.)
5 | GCTGTGGGGAGATGGGACTTTAGATTTTTGAAATTGATGACGGAGTCACCTAGTGCAG | 12000 fluorescence intensity (a.u.)
6 | GCAGCCCTCAATTTCTATGGCGATCGCCTCTGCTTCGTCGCGGAGTCACCTAGTGCAG | 8440 fluorescence intensity (a.u.)
7 | ACTGTCATGCAAATGCTTTGGTTTGTTCTCTGTACATTCCCGGAGTCACCTAGTGCAG | 8560 fluorescence intensity (a.u.)
8 | ATCAATGTTTTTGTTCTTGGATTTGCAATGCTTACGAAATCGGAGTCACCTAGTGCAG | 9290 fluorescence intensity (a.u.)
9 | TTTTGCATGTTCTATTGCATCCTTGAAAGCTATGTGCTTTCGGAGTCACCTAGTGCAG | 8450 fluorescence intensity (a.u.)
10 | CGCGCTGAAAGATTCGCTTTCTTGGTTGGTTGGTTGATCGCGGAGTCACCTAGTGCAG | 11000 fluorescence intensity (a.u.)
11 | TTCTACTGGCGTTCCCTCACACATTTATTCCAATTCATTCCGGAGTCACCTAGTGCAG | 8320 fluorescence intensity (a.u.)
12 | ACGCATCATTATGGCCACTGCTGTTCCCATCCATCTCCAGCGGAGTCACCTAGTGCAG | 8670 fluorescence intensity (a.u.)
13 | GCGTCTCCTCAACCAATCGCCATTTGCCGCGCCTTATCCACGGAGTCACCTAGTGCAG | 9290 fluorescence intensity (a.u.)
14 | CCCCGTTTTTTTTCTGGGTGTAGCGGTGGAGTTGCTTGGGCGGAGTCACCTAGTGCAG | 8040 fluorescence intensity (a.u.)
15 | TCTGGCTCCATGCTGTCACCTGCCATTGCAAGTTTGCAACCGGAGTCACCTAGTGCAG | 8650 fluorescence intensity (a.u.)
16 | AATTATATTCACGGTCTATTGTTTGTCCTAGCTAAAATATCGGAGTCACCTAGTGCAG | 8080 fluorescence intensity (a.u.)
17 | GTACAACGCAGGCGCTCACAAGTCACGTCCACTCATCCCTCGGAGTCACCTAGTGCAG | 9980 fluorescence intensity (a.u.)
18 | ATTTAATGGGTTGATTCGTTCTTAGATGGCTAGCAATAATCGGAGTCACCTAGTGCAG | 9790 fluorescence intensity (a.u.)
19 | CTCTATCAGGGATGGTCAGCTGGAGTTCGTGTGCATCAGTCGGAGTCACCTAGTGCAG | 8310 fluorescence intensity (a.u.)
20 | AGCACTGTAGCTGACCCACTACTGCCCCAGTCAAGCCGCGCGGAGTCACCTAGTGCAG | 8750 fluorescence intensity (a.u.)
21 | GGTCTGAACTCTCGAGTCTAATATTGTATTTCTTGTATTTCGGAGTCACCTAGTGCAG | 15000 fluorescence intensity (a.u.)

As a short view, part of the list above.
Row | Sequence | binding signal
13 | GCGTCTCCTCAACCAATCGCCATTTGCCGCGCCTTATCCACGGAGTCACCTAGTGCAG | 9290 fluorescence intensity (a.u.)
14 | CCCCGTTTTTTTTCTGGGTGTAGCGGTGGAGTTGCTTGGGCGGAGTCACCTAGTGCAG | 8040 fluorescence intensity (a.u.)

Carrying on.

Row | Sequence | binding signal
22 | AAATTTCTACTGTCATGCTTCCTTGTCCCATTACTACATCCGGAGTCACCTAGTGCAG | 9500 fluorescence intensity (a.u.)
23 | GGGCTGGCCTTCTTTGACACAAGCATCTTAAATCTGTATCCGGAGTCACCTAGTGCAG | 8070 fluorescence intensity (a.u.)
24 | GAGGTGGTGGAGCGAGGTGGAAGAGGGCGCGGGTGGCGGGCGGAGTCACCTAGTGCAG | 9480 fluorescence intensity (a.u.)
25 | TCGCCTATCTCTCTATCTCTTTCGCCACCGCTTGCCTCTCCGGAGTCACCTAGTGCAG | 9030 fluorescence intensity (a.u.)
26 | CGCATTCTCGTCGTGTCTGGTTTGAGCTGCTGCTGCTGCTCGGAGTCACCTAGTGCAG | 9710 fluorescence intensity (a.u.)
27 | TACCGATGGGGCTCTTATACTCCAACTCTTGCCCTGTTTACGGAGTCACCTAGTGCAG | 9020 fluorescence intensity (a.u.)
28 | AGTCACGGGTACATAGGGTGTGGTTAGATCTTTTTTTTTCCGGAGTCACCTAGTGCAG | 12100 fluorescence intensity (a.u.)
29 | TGGTTTCATCTATTTTCTTTGTTTTTTTATGTCTATTGAACGGAGTCACCTAGTGCAG | 12100 fluorescence intensity (a.u.)
30 | GGGGTGTTTTTTTTTTGCAATTTTTTTCTTTAAAATTGTACGGAGTCACCTAGTGCAG | 13700 fluorescence intensity (a.u.)
31 | CGCTGCTCTCACTGTCGTCACCCGCGTGGCCACGTCGATGCGGAGTCACCTAGTGCAG | 9100 fluorescence intensity (a.u.)
32 | GGTCTCGGTCGGTCTACTATCTCCATGCGCTCACGTTCCACGGAGTCACCTAGTGCAG | 13000 fluorescence intensity (a.u.)
33 | TAATGTATAACGCCGTTAACTTTTTAACAAACGTTTGACCCGGAGTCACCTAGTGCAG | 8430 fluorescence intensity (a.u.)
34 | CCATCTGCGGCGTACTTGCCACTTTTCTTCGATCGGCACCCGGAGTCACCTAGTGCAG | 8510 fluorescence intensity (a.u.)
35 | TAAGTTTGACTTTTGGGGAATTTAATCTAATCCAGCGTGGCGGAGTCACCTAGTGCAG | 11300 fluorescence intensity (a.u.)
36 | ATCCTGGCCAAAATGCTTCTCTCACACCGGTTTGTACACGCGGAGTCACCTAGTGCAG | 8290 fluorescence intensity (a.u.)
37 | TCTTTGTCTCCAACTCCCTCGTCTCCTTGTACGCCAAGTTCGGAGTCACCTAGTGCAG | 8220 fluorescence intensity (a.u.)
38 | ACCGAAACTGCTTGCATCACCGCTGATATCATCGCCTCCACGGAGTCACCTAGTGCAG | 11000 fluorescence intensity (a.u.)
39 | ACTCCCTACGTCTGTCCAGACGTTTTTCTTAGTCAATTTTCGGAGTCACCTAGTGCAG | 8360 fluorescence intensity (a.u.)
40 | TCCACTAATCCACGAAACTCTCAGCTCATCCACACACATCCGGAGTCACCTAGTGCAG | 10500 fluorescence intensity (a.u.)
41 | GCCGTCCACTCCTCAACCGCGTCTCCGCTGTTTCCTTAGCCGGAGTCACCTAGTGCAG | 11600 fluorescence intensity (a.u.)
42 | GGCACTTGATGTGGTTGGCCATTGTCTTGATTATAACCTCCGGAGTCACCTAGTGCAG | 8650 fluorescence intensity (a.u.)
